According to the supplement of paper PMC7661543:
Differences between knockout arms are mostly noise.

System: BT-20
Experiment: relative cell number vs DMSO control (72 h) (% of DMSO); higher = less growth inhibition (more cells)
Experimental: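 QMAP-Seq: a pool of 5 breast cancer cell lines (ZR-75-1, SKBR3, HCC-38, MDA-MB-231, BT-20), each carrying 12 doxycycline-inducible Cas9 sgRNA perturbations (11 knockouts plus non-targeting sgNT), was treated with compounds for 72 h at four 10-fold doses (10 nM-10 uM or 1 nM-1 uM range). Barcodes were amplified and sequenced, and cell number was interpolated from 293T spike-in standard curves. The result is expressed as % of the median of DMSO wells. Two biological replicates.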

C[C@@H](Nc1cc(F)cc(F)c1)c1cc(C(=O)N(C)C)cc2c(=O)cc(N3CCOCC3)oc12 [AZD8186]
Conditions | relative cell number
sgRNA knockout: sgATF3, 10 nM | 111
sgRNA knockout: sgATF3, 100 nM | 112
sgRNA knockout: sgATF3, 1000 nM | 89.7
sgRNA knockout: sgATF3, 10000 nM | 87.8
sgRNA knockout: sgATF4, 10 nM | 108
sgRNA knockout: sgATF4, 100 nM | 128
sgRNA knockout: sgATF4, 1000 nM | 112
sgRNA knockout: sgATF4, 10000 nM | 91.58
sgRNA knockout: sgATF6, 10 nM | 93.7
sgRNA knockout: sgATF6, 100 nM | 108
sgRNA knockout: sgATF6, 1000 nM | 88.9
sgRNA knockout: sgATF6, 10000 nM | 87.6
sgRNA knockout: sgATG7, 10 nM | 93.7
sgRNA knockout: sgATG7, 100 nM | 135
sgRNA knockout: sgATG7, 1000 nM | 93.6
sgRNA knockout: sgATG7, 10000 nM | 92
sgRNA knockout: sgERN1, 10 nM | 97.9
sgRNA knockout: sgERN1, 100 nM | 125
sgRNA knockout: sgERN1, 1000 nM | 86.187
sgRNA knockout: sgERN1, 10000 nM | 84
sgRNA knockout: sgHSF1, 10 nM | 94.5
sgRNA knockout: sgHSF1, 100 nM | 110.5
sgRNA knockout: sgHSF1, 1000 nM | 82.7
sgRNA knockout: sgHSF1, 10000 nM | 98.5
sgRNA knockout: sgHSF2, 10 nM | 106
sgRNA knockout: sgHSF2, 100 nM | 102
sgRNA knockout: sgHSF2, 1000 nM | 100
sgRNA knockout: sgHSF2, 10000 nM | 76.8
sgRNA knockout: sgKEAP1, 10 nM | 92.6
sgRNA knockout: sgKEAP1, 100 nM | 108
sgRNA knockout: sgKEAP1, 1000 nM | 88.1
sgRNA knockout: sgKEAP1, 10000 nM | 91.8
sgRNA knockout: sgNFE2L2, 10 nM | 119
sgRNA knockout: sgNFE2L2, 100 nM | 129
sgRNA knockout: sgNFE2L2, 1000 nM | 100
sgRNA knockout: sgNFE2L2, 10000 nM | 81.2
sgRNA knockout: sgSLC35F2, 10 nM | 101
sgRNA knockout: sgSLC35F2, 100 nM | 125
sgRNA knockout: sgSLC35F2, 1000 nM | 99.3
sgRNA knockout: sgSLC35F2, 10000 nM | 95.2
sgRNA knockout: sgXBP1, 10 nM | 104
sgRNA knockout: sgXBP1, 100 nM | 117
sgRNA knockout: sgXBP1, 1000 nM | 100
sgRNA knockout: sgXBP1, 10000 nM | 92.8

CC(C)C[C@H](NC(=O)[C@H](Cc1ccccc1)NC(=O)c1cnccn1)B(O)O [Bortezomib]
Conditions | relative cell number
sgRNA knockout: sgATF3, 1 nM | 96.8
sgRNA knockout: sgATF3, 10 nM | 83.8
sgRNA knockout: sgATF3, 100 nM | 23
sgRNA knockout: sgATF3, 1000 nM | 17.1
sgRNA knockout: sgATF4, 1 nM | 85.8
sgRNA knockout: sgATF4, 10 nM | 88.7
sgRNA knockout: sgATF4, 100 nM | 20.3
sgRNA knockout: sgATF4, 1000 nM | 22.3
sgRNA knockout: sgATF6, 1 nM | 98.8
sgRNA knockout: sgATF6, 10 nM | 87.1
sgRNA knockout: sgATF6, 100 nM | 23.4
sgRNA knockout: sgATF6, 1000 nM | 20.2
sgRNA knockout: sgATG7, 1 nM | 88.23
sgRNA knockout: sgATG7, 10 nM | 83.4
sgRNA knockout: sgATG7, 100 nM | 18.5
sgRNA knockout: sgATG7, 1000 nM | 24.2
sgRNA knockout: sgERN1, 1 nM | 96.6
sgRNA knockout: sgERN1, 10 nM | 88.3
sgRNA knockout: sgERN1, 100 nM | 20.4
sgRNA knockout: sgERN1, 1000 nM | 19
sgRNA knockout: sgHSF1, 1 nM | 84.4
sgRNA knockout: sgHSF1, 10 nM | 97.2
sgRNA knockout: sgHSF1, 100 nM | 19.9
sgRNA knockout: sgHSF1, 1000 nM | 18.7
sgRNA knockout: sgHSF2, 1 nM | 98.1
sgRNA knockout: sgHSF2, 10 nM | 75.2
sgRNA knockout: sgHSF2, 100 nM | 21.2
sgRNA knockout: sgHSF2, 1000 nM | 24.1
sgRNA knockout: sgKEAP1, 1 nM | 92.6
sgRNA knockout: sgKEAP1, 10 nM | 89.6
sgRNA knockout: sgKEAP1, 100 nM | 22.3
sgRNA knockout: sgKEAP1, 1000 nM | 20.4
sgRNA knockout: sgNFE2L2, 1 nM | 77.1
sgRNA knockout: sgNFE2L2, 10 nM | 81.4
sgRNA knockout: sgNFE2L2, 100 nM | 20.3
sgRNA knockout: sgNFE2L2, 1000 nM | 16.8
sgRNA knockout: sgSLC35F2, 1 nM | 93.8
sgRNA knockout: sgSLC35F2, 10 nM | 79
sgRNA knockout: sgSLC35F2, 100 nM | 18
sgRNA knockout: sgSLC35F2, 1000 nM | 22.2
sgRNA knockout: sgXBP1, 1 nM | 93.4
sgRNA knockout: sgXBP1, 10 nM | 91.7
sgRNA knockout: sgXBP1, 100 nM | 19
sgRNA knockout: sgXBP1, 1000 nM | 21.8

CC[C@H](Nc1ncnc2[nH]cnc12)c1nc2cccc(F)c2c(=O)n1-c1ccccc1 [CAL101]
Conditions | relative cell number
sgRNA knockout: sgATF3, 10 nM | 80.5
sgRNA knockout: sgATF3, 100 nM | 98.4
sgRNA knockout: sgATF3, 1000 nM | 104
sgRNA knockout: sgATF3, 10000 nM | 96.3
sgRNA knockout: sgATF4, 10 nM | 89.6
sgRNA knockout: sgATF4, 100 nM | 94.4
sgRNA knockout: sgATF4, 1000 nM | 108
sgRNA knockout: sgATF4, 10000 nM | 106
sgRNA knockout: sgATF6, 10 nM | 92.4
sgRNA knockout: sgATF6, 100 nM | 80.4
sgRNA knockout: sgATF6, 1000 nM | 100
sgRNA knockout: sgATF6, 10000 nM | 87.8
sgRNA knockout: sgATG7, 10 nM | 88.8
sgRNA knockout: sgATG7, 100 nM | 90.4
sgRNA knockout: sgATG7, 1000 nM | 94.9
sgRNA knockout: sgATG7, 10000 nM | 90.5
sgRNA knockout: sgERN1, 10 nM | 84.2
sgRNA knockout: sgERN1, 100 nM | 83.7
sgRNA knockout: sgERN1, 1000 nM | 106
sgRNA knockout: sgERN1, 10000 nM | 90.3
sgRNA knockout: sgHSF1, 10 nM | 88.4
sgRNA knockout: sgHSF1, 100 nM | 90.9
sgRNA knockout: sgHSF1, 1000 nM | 98.38
sgRNA knockout: sgHSF1, 10000 nM | 116
sgRNA knockout: sgHSF2, 10 nM | 96.5
sgRNA knockout: sgHSF2, 100 nM | 105
sgRNA knockout: sgHSF2, 1000 nM | 100
sgRNA knockout: sgHSF2, 10000 nM | 88
sgRNA knockout: sgKEAP1, 10 nM | 90
sgRNA knockout: sgKEAP1, 100 nM | 87.2
sgRNA knockout: sgKEAP1, 1000 nM | 94.2
sgRNA knockout: sgKEAP1, 10000 nM | 96.2
sgRNA knockout: sgNFE2L2, 10 nM | 73.9
sgRNA knockout: sgNFE2L2, 100 nM | 99.8
sgRNA knockout: sgNFE2L2, 1000 nM | 101
sgRNA knockout: sgNFE2L2, 10000 nM | 102
sgRNA knockout: sgSLC35F2, 10 nM | 99.2
sgRNA knockout: sgSLC35F2, 100 nM | 98.1
sgRNA knockout: sgSLC35F2, 1000 nM | 95.3
sgRNA knockout: sgSLC35F2, 10000 nM | 97.5
sgRNA knockout: sgXBP1, 10 nM | 92.3
sgRNA knockout: sgXBP1, 100 nM | 106
sgRNA knockout: sgXBP1, 1000 nM | 93.8
sgRNA knockout: sgXBP1, 10000 nM | 98.7
